From patent US20170015555A1, “LONG-TERM PRESERVATION AND NOVEL APPLICATION OF CHLOROUS ACID AQUEOUS SOLUTION FORMULATION” (priority 2013, published 2017) come the findings set out here.

A value given as a limit tells only on which side of the number the result lay.

A short description of the data set: Deodorizing effect (chemical deodorization, gas detector tube). As to conditions: 400 ppm; for deodorizing effect on amine odor over time: up to 24 hours after spraying. From the text: In order to evaluate tests on deodorizing effects, the present Example examined deodorizing effects by using standards regarding air freshening and deodorization ([II]-2 Method of Testing Deodorizing Efficacy (Chemical Deodorization)) set forth by the Air Fresheners and Deodorizers Conference (http://www.houkou.gr.jp/) as the efficacy testing method, which is adopted by Japan Food Research Laboratories.
Ammonium odor: Ammonium Standard Solution II (Wako Pure Chemical Industries, for testing malodorous substances) Amine odor: methyl mercaptan standard solution (Wako Pure Chemical Industries, for testing malodorous substances) Sulfur odor: hydrogen sulfide (self-made, used hydrogen sulfide that was generated by adding sulfuric acid to zinc sulfide)
Gas detector tube made by GASTEC Corporation Ammonium odor: Detector tube ammonium 3 L made by GASTEC Corporation Amino odor: Detector tube methyl mercaptan 71 made by GASTEC Corporation Sulfur odor: Detector tube hydrogen sulfide 4 LL made by GASTEC Corporation […]
The bags were filled with odorless air. Malodor concentrations were measured over time at room temperature (about 20° C.). (3 points or higher, detection tube method (FIG. 16), measured by an instrument analysis method or olfactory measurement method. When decrease in the blank was observed, the decrease was suitably corrected. When measuring by olfactory measuring method, the airbag spigot was opened for direct sniffing, or gas was transferred to an odor bag while wearing a mask to perform olfactory measurement in an autonomic respiration form. Measured air was not returned to the source).
Next, for amine odor (methyl mercaptan), the residual concentrations were detected and recorded for control (no specimen), 20 ml (cc) of distilled water, sodium hypochlorite (expressed as Na hypochlorite, 400 ppm), and chlorous acid aqueous solution (expressed as CAAS, 400 ppm) prior to spraying and 0 hour, 3 hours, 6 hours, 9 hours, and 24 hours after spraying. […]

As for `OCl` [Sodium Hypochlorite, sodium hypochlorite], the “deodorizing effect on amine odor over time” value is “a phenomenon of rising odor can be seen thereafter as time passes”. The “residual methyl mercaptan, corrected value (control = 100)” value (first experiment, 3 hours after spraying) was ≤ 10. Besides, where the note is “listed as Na hypochlorite”, the “deodorizing effect on amine odor over time” value was “tendency for amine odor to rise”.
